The assay deals with human Gemin2 (12-280)-Mxe intein-His6 (human) (UniProt O14893). Description: co-purification of co-expressed proteins; bacterial co-expression; human: Ni-NTA and chitin beads by the Mxe intein-His6 on Gemin2, then Superdex 200.

By UniProt entry, the sequences of proteins in these tests, tags left out. Residues count along the entry.
UniProt O14893, residues 12-280: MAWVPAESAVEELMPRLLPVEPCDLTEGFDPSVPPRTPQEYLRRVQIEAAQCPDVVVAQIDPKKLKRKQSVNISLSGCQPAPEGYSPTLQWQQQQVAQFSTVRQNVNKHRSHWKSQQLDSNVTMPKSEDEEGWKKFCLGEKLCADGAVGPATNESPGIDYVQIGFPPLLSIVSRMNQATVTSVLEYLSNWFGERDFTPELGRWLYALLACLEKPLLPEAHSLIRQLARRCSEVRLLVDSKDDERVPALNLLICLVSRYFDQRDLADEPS
UniProt Q16637: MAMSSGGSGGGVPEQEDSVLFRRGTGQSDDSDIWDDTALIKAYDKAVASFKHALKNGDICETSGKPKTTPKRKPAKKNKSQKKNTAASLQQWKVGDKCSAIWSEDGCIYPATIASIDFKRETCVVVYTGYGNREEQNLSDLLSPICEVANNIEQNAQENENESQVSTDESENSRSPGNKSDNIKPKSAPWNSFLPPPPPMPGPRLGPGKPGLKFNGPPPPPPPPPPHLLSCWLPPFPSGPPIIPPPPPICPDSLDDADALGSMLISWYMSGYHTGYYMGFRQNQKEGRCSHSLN

Data on 1 substance can be found in paper PMC8287954.

No constants are given. Whether binding was seen depends on the method and setting. Some results given as binding are weak or reduced against the parent protein; the word gives no strength.

For the substance “human SMN (residues 1-294) (from UniProt Q16637 1-294)”, the binding entry was “binds”.
